# Results from the supplement of paper PMC11006884.
# The entries are a selection whose mix differs from that of the whole data set.
# Compound: COC(=O)C#Cc1ccccc1 [methyl 3-phenylpropiolate]
# Experiment: log2 ratio of iodoacetamide-alkyne labeling of the cysteine site, DMSO over compound (competition); higher = stronger covalent engagement of the cysteine by the compound, active = 1 or more
# Conditions: 500 µM; treatment time 1 h; system: HEK293T cell lysate
# Procedure, shortened: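 Reporter intensities give each cysteine's log2 competition ratio as the mean of control channels over the mean of compound channels. The samples were HEK293T lysate (2 mg/mL) given vehicle or electrophile (500 µM, 1 h, ambient temperature), then iodoacetamide alkyne (1 h), followed by click coupling to sCIP-TMT reagents, pooling, trypsin digestion overnight at 37 °C, streptavidin enrichment, acid elution, Orbitrap Eclipse LC-MS/MS with FAIMS and FragPipe quantification. Duplicate channels and three replicates were run, and cysteines quantified in only one replicate were discarded.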
row,Target,log2 ratio of iodoacetamide-alkyne labeling
1,EIF2B3 C334 (UniProt Q9NR50),inactive: 0.456
2,DDX21 C291 (UniProt Q9NR30),inactive: 0.356
3,VTA1 C38 (UniProt Q9NP79),inactive: 0.205
4,PPA2 C161 (UniProt Q9H2U2),inactive: -0.42
5,UniProt Q9NSY1_C912,inactive: 0.827
6,MBNL1 C27 (UniProt Q9NR56),inactive: 0.203
7,UniProt Q9H6R7_C574,inactive: 0.266
8,UBQLN4 C29 (UniProt Q9NRR5),active: 1.12
9,UniProt Q9NRP4_C80,inactive: 0.483
10,LUC7L C59 (UniProt Q9NQ29),inactive: 0.0632
11,EHMT1 C276 (UniProt Q9H9B1),inactive: -0.379
12,SARS2 C64 (UniProt Q9NP81),inactive: 0.315
13,PNN C249 (UniProt Q9H307),inactive: 0.621
14,UniProt Q9H668_C8,inactive: 0.685
15,UNC45A C927 (UniProt Q9H3U1),inactive: 0.0272
16,DIAPH3 C868 (UniProt Q9NSV4),inactive: 0.0696
17,RANBP3 C203 (UniProt Q9H6Z4),inactive: 0.21
18,MDN1 C57 (UniProt Q9NU22),inactive: 0.0881
19,STRN4 C17 (UniProt Q9NRL3),inactive: 0.231

row,Target,log2 ratio of iodoacetamide-alkyne labeling
1,FARSB C548 (UniProt Q9NSD9),inactive: -0.00808
2,SENP3 C532 (UniProt Q9H4L4),inactive: 0.0982
3,RABEP2 C115 (UniProt Q9H5N1),inactive: 0.113
4,MDN1 C1394 (UniProt Q9NU22),inactive: 0.336
5,LANCL2 C169 (UniProt Q9NS86),inactive: 0.171
6,PPAN C391 (UniProt Q9NQ55),inactive: 0.505
7,GPHN C26 (UniProt Q9NQX3),inactive: -0.0135
8,OLA1 C117 (UniProt Q9NTK5),inactive: -0.153
9,ACAD9 C179 (UniProt Q9H845),inactive: 0.0482
10,MVB12B C267 (UniProt Q9H7P6),inactive: 0.00514
11,MBNL1 C34 (UniProt Q9NR56),inactive: 0.203
12,CBX8 C261 (UniProt Q9HC52),inactive: 0.434
13,BAZ1A C898 (UniProt Q9NRL2),inactive: 0.126
14,PPAN C432 (UniProt Q9NQ55),inactive: 0.73
15,RAB18 C155 (UniProt Q9NP72),inactive: 0.211
16,MDN1 C95 (UniProt Q9NU22),inactive: 0.132
17,MDN1 C271 (UniProt Q9NU22),inactive: 0.728
18,PPAN C180 (UniProt Q9NQ55),inactive: 0.0291

# Fetched one by one from the list above, 2 records:
row,Target,log2 ratio of iodoacetamide-alkyne labeling
10,MVB12B C267 (UniProt Q9H7P6),inactive: 0.00514
11,MBNL1 C34 (UniProt Q9NR56),inactive: 0.203
